Structures can show the parent of a compound that is named as a salt. Some of the results follow. Repeats are few or missing, and single values can be far off.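 Labelled rat cortical synaptosomes were engulfed by primary human fetal astrocytes. Engulfment equaled a red/green ratio, corrected for calcein live-cell signal and normalized to the plate median. Compounds were toxic when calcein dropped over 30%, and reduced phagocytosis when below 70% of the median above 5 µM.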
Key:
Conditions in all cases: 24 h
[1] = system: Human fetal astrocytes; assay: loss of total cells relative to no-compound high-control median (toxicity); higher = more toxic (fewer cells)
[2] = system: Human fetal astrocytes; assay: synaptosome phagocytosis (pHrodo/calcein intensity ratio) relative to plate median of data wells; higher = more phagocytosis
[3] = system: Human fetal astrocytes; assay: loss of total cells relative to no-compound high-control median (toxicity); higher = more toxic (fewer cells); remark: listed apart in the source

Structure (SMILES)	loss of total cells ([1]; 1.39 µM) [%]	loss of total cells ([1]; 2.78 µM) [%]	loss of total cells ([1]; 5.56 µM) [%]	loss of total cells ([1]; 11.11 µM) [%]	loss of total cells ([1]; 22.22 µM) [%]	synaptosome phagocytosis ([2]; 1.39 µM) [%]	synaptosome phagocytosis ([2]; 2.78 µM) [%]	synaptosome phagocytosis ([2]; 5.56 µM) [%]	synaptosome phagocytosis ([2]; 11.11 µM) [%]	synaptosome phagocytosis ([2]; 22.22 µM) [%]	loss of total cells ([3]; 1.39 µM) [%]	loss of total cells ([3]; 2.78 µM) [%]	loss of total cells ([3]; 5.56 µM) [%]	loss of total cells ([3]; 11.11 µM) [%]	loss of total cells ([3]; 22.22 µM) [%]
CO[C@@]1(NC(=O)CSCC#N)C(=O)N2C(C(=O)O)=C(CSc3nnnn3C)CS[C@@H]21 [Cefmetazole sodium]	-12.5	-15.9	-21.7	-6.7	-2.6	89.4	98.9	98.8	103	120	–	–	–	–	–
NC(N)=NC(N)=Nc1cccc(Cl)c1 [1-(m-Chlorophenyl)-biguanide hydrochloride]	11.3	-12.8	12.3	1.3	-12.8	98.3	94.7	99.9	108	89.1	–	–	–	–	–
O=C(NCC1CCCCN1)c1cc(OCC(F)(F)F)ccc1OCC(F)(F)F (stereo not given) [Flecainide acetate]	1.3	-23.1	-15.6	-9.4	-7.2	105	101	106	110	115	–	–	–	–	–
COc1ccc2c(c1OC)C(=O)O[C@@H]2[C@H]1c2c(cc3c(c2OC)OCO3)CCN1C [Noscapine hydrchloride]	4.3	11.3	4.2	8.6	13.1	113	87.5	97.2	94.2	115	–	–	–	–	–
CCn1cc(C(=O)O)c(=O)c2ccc(C)nc21 [Nalidixic acid sodium]	-10	8.6	6.1	2.9	17.8	96.2	104	98.7	97.7	101	–	–	–	–	–
C#CCN1C(C)=C(C(=O)OC)C(c2cccc([N+](=O)[O-])c2)C(C(=O)OCC)=C1C (stereo not given)	-3.3	10.4	8.9	-7.6	26.2	126	80.3	117	116	83.5	–	–	–	–	–
CC(/C=C/c1cccc(Oc2ccc(F)cc2)c1)N(O)C(N)=O (stereo not given)	0.7	-12	-8.8	-15.7	21.4	150	137	98.5	87	80	–	–	–	–	–
CCCc1c(-c2ccc(O)cc2)nn(-c2ccc(O)cc2)c1-c1ccc(O)cc1 [1,3,5-tris(4-hydroxyphenyl)-4-propyl-1H-pyrazole]	2.9	-24.8	-9.9	-18.4	-14.4	103	127	94	123	107	–	–	–	–	–
NC(N)=Nc1nc(CSCC/C(N)=N/S(N)(=O)=O)cs1 [Famotidine]	4.6	-3.4	-5.8	-5.8	-18.4	96.5	114	111	112	88.1	–	–	–	–	–
Oc1ccc(-c2nc(-c3ccc(F)cc3)c(-c3ccncc3)[nH]2)cc1	-12.1	-17.1	-10.6	-9.4	13.2	134	101	88.5	113	81.8	–	–	–	–	–
NC(N)=N[C@@H](CCC(=O)O)C(=O)O [alpha-Guanidinoglutaric acid]	12.1	-12	5.8	-13	8.8	141	114	108	81	113	–	–	–	–	–
NC1(C(=O)O)CCCCC1 [1-Amino-1-cyclohexanecarboxylic acid hydrochloride]	-19.8	-3.3	-23.5	-23.8	2.6	78.5	90	114	100	112	–	–	–	–	–
CC(=O)OCC(=O)[C@@]1(O)CC[C@H]2[C@@H]3CCC4=CC(=O)CC[C@]4(C)[C@H]3C(=O)C[C@@]21C [Cortisone 21-acetate]	-5.5	-4.5	-1.4	-13	7.9	144	101	126	83.9	116	–	–	–	–	–
CN(C)CCCO[C@@H]1[C@H]2OC(C)(C)O[C@H]2O[C@@H]1[C@H](O)CO [Amiprilose hydrochloride]	-26.4	-8.7	-9.7	-5.8	-4.9	115	117	107	76.8	81.7	–	–	–	–	–
CCCN(CCc1ccccc1)C1CCc2c(O)cccc2C1 (racemic) [(±)-PPHT hydrochloride]	-20.8	-17.1	-10.1	-24.9	-39.5	91.5	120	82.1	102	85.1	–	–	–	–	–
Oc1ccc2c(c1)OC[C@]1(O)Cc3cc(O)c(O)cc3[C@H]21	–	–	–	–	–	–	–	–	–	–	6.9	7.3	50.4	51.6	18.1
N=C(N)N1CCc2ccccc2C1 [Debrisoquin sulfate]	-6.3	-8.5	-3.3	-1.3	–	102	108	69.1	104	–	–	–	–	–	–
CN1[C@@H]2CC[C@H]1C[C@@H](OC(=O)C(O)c1ccccc1)C2 (mixture of isomers) [DL-Homatropine hydrobromide]	7.1	-35	8.2	-9.4	11.2	–	–	–	–	–	–	–	–	–	–
CCCCS(=N)(=O)CCC(N)C(=O)O [L-Buthionine-sulfoximine]	5.1	-0.9	-1.4	-2.2	-10.9	132	136	116	138	121	–	–	–	–	–
Nc1nc2ccc(Cl)cc2c2nc(-c3ccco3)nn12	1.3	11.1	10.7	-4	–	114	97.8	107	74.8	–	–	–	–	–	–

Sorted by SMILES length (rising): some entries from above.
Structure (SMILES)	loss of total cells ([1]; 1.39 µM) [%]	loss of total cells ([1]; 2.78 µM) [%]	loss of total cells ([1]; 5.56 µM) [%]	loss of total cells ([1]; 11.11 µM) [%]	loss of total cells ([1]; 22.22 µM) [%]	synaptosome phagocytosis ([2]; 1.39 µM) [%]	synaptosome phagocytosis ([2]; 2.78 µM) [%]	synaptosome phagocytosis ([2]; 5.56 µM) [%]	synaptosome phagocytosis ([2]; 11.11 µM) [%]	synaptosome phagocytosis ([2]; 22.22 µM) [%]	loss of total cells ([3]; 1.39 µM) [%]	loss of total cells ([3]; 2.78 µM) [%]	loss of total cells ([3]; 5.56 µM) [%]	loss of total cells ([3]; 11.11 µM) [%]	loss of total cells ([3]; 22.22 µM) [%]
NC1(C(=O)O)CCCCC1 [1-Amino-1-cyclohexanecarboxylic acid hydrochloride]	-19.8	-3.3	-23.5	-23.8	2.6	78.5	90	114	100	112	–	–	–	–	–
NC(N)=NC(N)=Nc1cccc(Cl)c1 [1-(m-Chlorophenyl)-biguanide hydrochloride]	11.3	-12.8	12.3	1.3	-12.8	98.3	94.7	99.9	108	89.1	–	–	–	–	–
NC(N)=N[C@@H](CCC(=O)O)C(=O)O [alpha-Guanidinoglutaric acid]	12.1	-12	5.8	-13	8.8	141	114	108	81	113	–	–	–	–	–
CCCN(CCc1ccccc1)C1CCc2c(O)cccc2C1 (racemic) [(±)-PPHT hydrochloride]	-20.8	-17.1	-10.1	-24.9	-39.5	91.5	120	82.1	102	85.1	–	–	–	–	–
NC(N)=Nc1nc(CSCC/C(N)=N/S(N)(=O)=O)cs1 [Famotidine]	4.6	-3.4	-5.8	-5.8	-18.4	96.5	114	111	112	88.1	–	–	–	–	–
CC(/C=C/c1cccc(Oc2ccc(F)cc2)c1)N(O)C(N)=O (stereo not given)	0.7	-12	-8.8	-15.7	21.4	150	137	98.5	87	80	–	–	–	–	–
Oc1ccc2c(c1)OC[C@]1(O)Cc3cc(O)c(O)cc3[C@H]21	–	–	–	–	–	–	–	–	–	–	6.9	7.3	50.4	51.6	18.1
COc1ccc2c(c1OC)C(=O)O[C@@H]2[C@H]1c2c(cc3c(c2OC)OCO3)CCN1C [Noscapine hydrchloride]	4.3	11.3	4.2	8.6	13.1	113	87.5	97.2	94.2	115	–	–	–	–	–
C#CCN1C(C)=C(C(=O)OC)C(c2cccc([N+](=O)[O-])c2)C(C(=O)OCC)=C1C (stereo not given)	-3.3	10.4	8.9	-7.6	26.2	126	80.3	117	116	83.5	–	–	–	–	–

Further records follow.

Structure (SMILES)	loss of total cells ([1]; 1.39 µM) [%]	loss of total cells ([1]; 2.78 µM) [%]	loss of total cells ([1]; 5.56 µM) [%]	loss of total cells ([1]; 11.11 µM) [%]	loss of total cells ([1]; 22.22 µM) [%]	synaptosome phagocytosis ([2]; 1.39 µM) [%]	synaptosome phagocytosis ([2]; 2.78 µM) [%]	synaptosome phagocytosis ([2]; 5.56 µM) [%]	synaptosome phagocytosis ([2]; 11.11 µM) [%]	synaptosome phagocytosis ([2]; 22.22 µM) [%]	loss of total cells ([3]; 1.39 µM) [%]	loss of total cells ([3]; 2.78 µM) [%]	loss of total cells ([3]; 5.56 µM) [%]	loss of total cells ([3]; 11.11 µM) [%]	loss of total cells ([3]; 22.22 µM) [%]
O=C1N(c2ccccc2)c2ccccc2C1(Cc1ccncc1)Cc1ccncc1 [Linopirdine]	1.4	14	5.2	23.8	1.9	98.6	137	85.4	104	96.1	–	–	–	–	–
CN1C2CCC1CC(OC(=O)C(O)c1ccccc1)C2 (stereo not given)	–	–	–	–	–	–	–	–	–	–	7.4	-19.3	0	0.9	19.8
O=C(c1ccc2c(c1)OCCO2)N1CCCCC1	–	–	–	–	-18.4	–	–	–	–	104	–	–	–	–	–
N#Cc1c(-c2ccccc2)no[n+]1[O-] [4-Phenyl-3-furoxancarbonitrile]	-5.2	2.3	-8.9	20	27.1	126	99.9	131	98.1	109	–	–	–	–	–
O=C1OC2(c3ccc(O)cc3Oc3cc(O)ccc32)c2ccccc21	–	–	–	–	–	–	–	–	–	–	3.3	-10.7	21.3	-28.9	-26.6
N[C@H](C(=O)O)c1cc(O)cc(O)c1 [(S)-3,5-Dihydroxyphenylglycine]	-7.1	3.4	7.4	-9.4	–	88.3	95.9	89.6	107	–	–	–	–	–	–
CC(N)(Cc1ccc(O)c(O)c1)C(=O)O (racemic) [(±)-3-(3,4-dihydroxyphenyl)-2-methyl-DL-alanine]	-7.1	-7.7	-33.3	4.8	-14	89.4	97.3	77.3	98.8	89.5	–	–	–	–	–
CNC(=O)[C@H]1O[C@@H](n2cnc3c(NCc4cccc(I)c4)nc(Cl)nc32)[C@H](O)[C@@H]1O [Chloro-IB-MECA]	-8.8	-0.9	1.6	1.3	–	77.2	74.3	105	71.4	–	–	–	–	–	–
Cc1cc(/C=C/c2ccc3cc(N(C)C)ccc3[n+]2C)c(C)n1-c1ccccc1	–	–	–	–	–	–	–	–	–	–	6.8	4.4	13.9	36	21.6
CCCCCC[C@@H]([C@@H](C)O)n1cnc2c(N)ncnc21 [erythro-9-(2-Hydroxy-3-nonyl)adenine hydrochloride]	-3.8	-12	-6.6	-13	-8	87.3	101	121	99	88.4	–	–	–	–	–
COc1cc2c(cc1OC)[C@@H](c1ccccc1)CN(C)CC2	-11.5	8.7	0.6	-9.6	-7.4	112	102	95.7	99.8	79.4	–	–	–	–	–
CN(C)C(=O)N=NC(=O)N(C)C [N,N,N',N'-Tetramethylazodicarboxamide]	–	–	–	–	17.6	–	–	–	–	90.4	–	–	–	–	–
O=P(O)(O)C(Cl)(Cl)P(=O)(O)O [Clodronic acid]	–	–	–	–	-8	–	–	–	–	97.4	–	–	–	–	–
Nc1ncnc2c1ncn2[C@@H]1O[C@H](COP(=O)(O)OP(=O)(O)OP(=O)(O)OP(=O)(O)OC[C@@H]2O[C@H](n3cnc4c(N)ncnc43)C(O)[C@@H]2O)[C@H](O)C1O (stereo not given in full) [P1,P4-Di(adenosine-5')tetraphosphate triammonium]	–	–	–	–	13.6	–	–	–	–	92.1	–	–	–	–	–
COC1=C(OC)C(=O)c2ccccc2C1=O [2,3-Dimethoxy-1,4-naphthoquinone]	–	–	–	–	-6.4	–	–	–	–	100	–	–	–	–	–
COc1c2c(nc3ccccc13)OC(C(C)(O)CO)C2 (stereo not given) [Dubinidine]	14.6	-14.5	-1.6	-0.4	1.6	149	126	120	95.9	121	–	–	–	–	–
OCc1cc(C(O)CNCCCCCCOCCCCc2ccccc2)ccc1O (stereo not given) [Salmeterol xinafoate]	-6.5	-20.7	-13.5	-22.6	-17.3	92	82.7	61.5	72.5	43.1	–	–	–	–	–
COc1cccc2c1C(=O)c1c(O)c3c(c(O)c1C2=O)C[C@@](O)(C(=O)CO)C[C@@H]3O[C@H]1C[C@H](N)[C@H](O)[C@H](C)O1	–	–	–	–	–	–	–	–	–	–	-51.6	-22.2	4.3	38.4	7.8
CCNC(=O)[C@H]1O[C@@H](n2cnc3c(N)nc(NCCc4ccc(CCC(=O)O)cc4)nc32)[C@H](O)[C@@H]1O	9.6	4.3	11.5	-16.6	–	112	100	94.6	89.4	–	–	–	–	–	–

From the supplement of paper PMC10689618
